# Assay results published in PubChem BioAssay AID1671190 (National Center for Advancing Translational Sciences (NCATS), 2021).
# Protein sequences, listed by entry. Tags and fused reporters are not part of them. Lines headed by an entry give the natural chain unless they say otherwise; changes in a name come on top.
# UniProt P18054: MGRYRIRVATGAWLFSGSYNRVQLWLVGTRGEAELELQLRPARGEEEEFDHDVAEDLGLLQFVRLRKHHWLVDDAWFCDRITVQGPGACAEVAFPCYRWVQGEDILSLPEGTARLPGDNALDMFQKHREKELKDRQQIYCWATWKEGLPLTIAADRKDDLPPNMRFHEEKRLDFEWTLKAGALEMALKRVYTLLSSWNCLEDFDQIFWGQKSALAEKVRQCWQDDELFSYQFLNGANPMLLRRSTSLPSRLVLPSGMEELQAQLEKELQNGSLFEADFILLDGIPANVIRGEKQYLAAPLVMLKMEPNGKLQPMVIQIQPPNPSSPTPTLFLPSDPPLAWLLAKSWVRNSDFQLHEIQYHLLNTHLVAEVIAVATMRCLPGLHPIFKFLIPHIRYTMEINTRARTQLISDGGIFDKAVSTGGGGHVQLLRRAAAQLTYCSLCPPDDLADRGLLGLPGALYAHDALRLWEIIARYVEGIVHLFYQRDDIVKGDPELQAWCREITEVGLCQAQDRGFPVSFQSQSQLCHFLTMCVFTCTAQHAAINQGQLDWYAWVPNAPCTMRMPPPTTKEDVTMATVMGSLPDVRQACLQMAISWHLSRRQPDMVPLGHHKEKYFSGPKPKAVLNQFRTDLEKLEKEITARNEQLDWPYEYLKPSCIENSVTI
# Where “and” joins values, the source holds several entries; their conditions need not be identical. Equal entries are not always repeated. About 6,100 (1.1%) of roughly 580,000 compounds were called active. Inconclusive results, whose numbers are uncertain, are shown with a selection of clear calls. Calls follow the shape of the dose curve; as a rule, active = well fitted inhibition curve with a large enough effect; inconclusive = small, poorly fitted or top-dose-only effect, or another doubt; inactive = no such curve, though single readings can be large or run the other way. Potencies beside an inconclusive call are fits to weak or partial responses and may not hold up.
# Target: Polyunsaturated fatty acid lipoxygenase ALOX12 (Homo sapiens) (UniProt P18054)
# Experiment: Primary qHTS assay for inhibitors of human arachidonate 12S-lipoxygenase (ALOX12): Round 2
# Details: purified 12hLO, xylenol orange hydroperoxide absorbance; activity change, negative = inhibition: at 108 µM (top of the series) unless noted
# Method in brief: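 Purified human 12hLO (150 nM final) in 25 mM Hepes, 0.01% Triton X-100, pH 7.0 was preincubated 15 min at room temperature with compound. Then 40 uM arachidonic acid was added, 30 min. Hydroperoxide was read by Fe-XO absorbance ratio 573/405 nm.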
# % is scaled to controls: 0 for no effect and ±100 for the full control effect; potency is read from the fitted curve at half-maximal effect.
SMILES,Potency,"activity change, negative = inhibition"
Cc1cccc(CNc2ncnc3ccc(-c4ccc5c(c4)OCO5)cc23)c1,"inconclusive: 6.31 µM [inhibitor, full curve, poor fit] and inconclusive: 44.7 µM [inhibitor, partial curve, poor fit]",–
COc1ccc(C2=NN(C(=O)CN3CCc4ccccc4C3)C(c3ccco3)C2)cc1 (configuration not stated),inactive,–
CCn1c(=O)c2c(nc3n2CCCN3c2cccc(C)c2)n(C)c1=O,"inconclusive: 31.6 µM [inhibitor, partial curve, poor fit]",–
O=C(CCN1C(=O)NC2(CCCC2)C1=O)Nc1ccc(-c2nc3ccccc3s2)cc1,inactive,–
O=C1COc2ccccc2N1Cc1c(F)cccc1Cl,inactive,–
O=C(Nc1ccc2c(c1)CCCN2C(=O)c1cccs1)c1cccc(C(F)(F)F)c1,"inconclusive: 44.7 µM [inhibitor, partial curve, poor fit]",–
S=c1[nH]nc(-c2ccccn2)n1/N=C/c1ccc(-c2ccccc2Br)o1,"inconclusive: 50.1 µM [inhibitor, partial curve, poor fit]",–
COc1ccc(-n2nc(C3CCCN(C(=O)Cc4ccccn4)C3)[nH]c2=O)cc1 (configuration not stated),inactive,–
CCOP(=O)(OCC)/C(C#N)=C/c1ccc(-c2ccc(F)cc2F)o1,"inconclusive: 39.8 µM [inhibitor, partial curve, poor fit]",–
C=C(C)C#CCNCc1ccccc1,"inconclusive: 10 µM [inhibitor, partial curve, poor fit]",–
S=c1[nH]nc(-c2cnccn2)n1-c1ccccc1,"inconclusive: 35.5 µM [inhibitor, partial curve, poor fit]",–
CC1CC2=C(NC(=S)NC2c2ccc(F)cc2)/C(=C/c2ccc(F)cc2)C1 (configuration not stated),active: 25.1 µM,–
Cc1cc(C)n2ncc(-c3noc(C(=O)NC4CCCC4)n3)c2n1,–,inconclusive: -31.6% [inhibitor]
CNc1ccccc(-c2ccc3ccccc3n2)c1=O,"inconclusive: 3.98 µM [inhibitor, full curve]",–
COc1ccc(CCC(C)NCCc2ccc(Cl)cc2Cl)cc1 (configuration not stated),"inconclusive: 141 µM [inhibitor, single point]",–
COCCCNC(=O)C(NC(=O)c1ccc(OC)cc1)C1CCN(C(=O)c2cccc(OC)c2)CC1 (configuration not stated),inactive,–
Brc1ccc(Cn2c(-c3ccc(Br)o3)nc3ccccc32)o1,"inconclusive: 44.7 µM [inhibitor, partial curve, poor fit]",–
CC(NCc1ccc(S(N)(=O)=O)cc1)C(=O)N1c2ccccc2CC1C (configuration not stated),"inconclusive: 0.398 µM [inhibitor, full curve, poor fit]",–
Cc1ccc(-n2nnnc2SCC(=O)Nc2ccc3nccnc3c2)c(C)c1,"inconclusive: 12.6 µM [inhibitor, full curve, poor fit]",–
Cc1ccc(Cc2c(-c3cccc(Cl)c3)nc3c(C)cc(Br)cn23)cc1,"inconclusive: 39.8 µM [inhibitor, partial curve, poor fit]",–
CCNC(=S)Nc1ccc(Cl)cc1,inactive,–
Oc1cccc(-c2nc3ccccc3s2)c1,"inconclusive: 56.2 µM [inhibitor, single point]",–
O=C(c1cccnn1)N1C[C@H]2CN(C3CCOCC3)C[C@@]2(C(=O)O)C1,"inconclusive: 10 µM [inhibitor, full curve, poor fit]",–

SMILES,Potency,"activity change, negative = inhibition"
Cc1ccc(S(=O)(=O)Nc2cc(C)cn(Cc3ccc(F)cc3)c2=O)cc1,inactive,–
C=CCSc1nnc(NC(=O)CSc2nc3ccccc3[nH]2)s1,inactive,–
C/C(=N\NS(=O)(=O)c1cccc([N+](=O)[O-])c1)c1cc2ccccc2o1,"inconclusive: 50.1 µM [inhibitor, partial curve, poor fit]",–
CCN1C(=O)C2(CCN(S(=O)(=O)c3ccc(C(C)C)cc3)CC2)c2ccccc21,inactive,–
COCCNc1nc2cc(C(=O)N3CC[C@H](CO)[C@@H](O)C3)ccc2n1C,inactive,–
C1CC1C(=NN=C(C1CC1)C1CC1)C1CC1,inactive,–
Cc1cc(C(=O)N2CCCCCCNC(=O)[C@@H]3C[C@@H](c4nc(Cc5ccccc5)no4)C[C@@H]32)nn1C,inactive,–
Oc1ccc2ccccc2c1CN1CCN(c2ccccc2)CC1,"inconclusive: 44.7 µM [inhibitor, partial curve, poor fit]",–
Cc1ccccc1N1CCN(C2CCCN(C/C=C/c3ccc(F)cc3)C2)CC1 (configuration not stated),inactive,–
COc1ccc(N(CC(=O)Nc2cc(C)ccc2C)S(=O)(=O)c2ccccc2[N+](=O)[O-])c(OC)c1,"inconclusive: 141 µM [inhibitor, partial curve, poor fit]",–
O/N=C1\CCC\C1=C/c1ccco1,"inconclusive: 22.4 µM [inhibitor, partial curve, poor fit]",–
Cc1cc(C)c(S(=O)(=O)Nc2ccc3oc4c(c3c2)CCCC4)cc1C,"inconclusive: 56.2 µM [inhibitor, partial curve, poor fit]",–
CC(C)[C@H](NC(=O)c1nn(Cc2ccccc2)c(=O)c2ccccc12)C(=O)O,"inconclusive: 100 µM [inhibitor, partial curve, poor fit]",–
Cc1cccnc1NC(=O)C12CCC(C)(C(=O)O1)C2(C)C (configuration not stated),"inconclusive: 0.708 µM [inhibitor, full curve, poor fit]",–
CC(O)(C#CCN1CCOCC1)c1ccccc1 (configuration not stated),inactive,–
CCOC(=O)c1sc(NS(=O)(=O)c2ccc(C)cc2)nc1C,"inconclusive: 50.1 µM [inhibitor, partial curve, poor fit]",–
O=[N+]([O-])c1cccnc1N1CCC(c2cc(-c3ccc(Cl)cc3Cl)n[nH]2)CC1,"inconclusive: 35.5 µM [inhibitor, partial curve, poor fit]",–
CC(CNC(=O)CCn1c(=O)c2cccn2c2ccc(F)cc21)c1ccccc1 (configuration not stated),"inconclusive: 89.1 µM [inhibitor, partial curve, poor fit]",–
CC(=O)c1cccc(S(=O)(=O)Nc2c(C)nn(C)c2C)c1,"inconclusive: 89.1 µM [inhibitor, single point]",–
COC(=O)c1ccc(CO/N=C/c2ccc(OCc3ccc(Cl)cc3)c(OC)c2)cc1,"inconclusive: 70.8 µM [inhibitor, single point]",–
CCN(CC)c1nc2ccccc2nc1C(=O)Nc1cc(C(=O)OC)cc(C(=O)OC)c1,inactive,–
COc1ccc(C2C=C(c3ccccc3)Nc3nc(NS(=O)(=O)c4ccccc4)nn32)cc1 (configuration not stated),"inconclusive: 15.8 µM [inhibitor, partial curve, poor fit]",–
CCOc1ccccc1NC(=O)N1CCCC(Cc2ncc(C)n2C(C)C)C1 (configuration not stated),inactive,–

SMILES,Potency,"activity change, negative = inhibition"
O=C1CCc2cc(S(=O)(=O)NCc3ccccc3)cc3c2N1CCC3,"inconclusive: 79.4 µM [inhibitor, partial curve, poor fit]",–
CCOP(=O)(OCC)C(NC(=O)c1cc([N+](=O)[O-])cc([N+](=O)[O-])c1)C(F)(F)F (configuration not stated),inactive,–
Cc1cc2c(cc1C)[n+](C)cn2CC(O)COCc1ccccc1 (configuration not stated),"inconclusive: 15.8 µM [inhibitor, full curve]",–
CC(C)(C)NNC(=S)Nc1cccc(C(F)(F)F)c1,inactive,–
COc1ccc(NC(=O)CN(C)C(=O)c2c(-c3ccccc3Cl)noc2C)cc1,–,inconclusive: -41.1% [inhibitor]
C=CCn1c(CCC(O)COCCC)n[nH]c1=S (configuration not stated),"inconclusive: 39.8 µM [inhibitor, partial curve, poor fit]",–
N#Cc1ccc(C(=O)OCC(=O)c2ccc3c(c2)OCCO3)cc1,"inconclusive: 89.1 µM [inhibitor, partial curve, poor fit]",–
COc1ccccc1C1=NS(=O)(=O)N(C)C(C(=O)N2CCCCC2C)=C1 (configuration not stated),inactive,–
Cn1c(=O)c(-c2cc(=O)[nH][nH]2)c(O)c2ccccc21,inactive,–
Cc1ccc(C(=O)O)cc1N1CC(O)=C(c2nc3ccccc3n2C)C1=N,"inconclusive: 2.51 µM [inhibitor, full curve, poor fit]",–
CN(C)c1ccc(NC(=O)CCCc2ccccc2)cc1,"inconclusive: 50.1 µM [inhibitor, partial curve, poor fit]",–
Cc1ccc(-c2nn(CC(O)COCc3ccccc3)c(=O)c3ccccc23)cc1 (configuration not stated),"inconclusive: 79.4 µM [inhibitor, single point]",–
COC(=O)c1ccc(C2C(C#N)=C(N)Oc3c2ccc2ccccc32)cc1 (configuration not stated),"inconclusive: 14.1 µM [inhibitor, full curve]",–
Cc1ccc(-n2c3nc(=O)[nH]c(=O)c-3cc3cc([N+](=O)[O-])ccc32)cc1,inactive,–
O=C(NCCc1ccccc1)C1CCN(c2cn[nH]c(=O)c2)C1 (configuration not stated),inactive,–
O=C(Nc1ccc(C(F)(F)F)cc1)c1cc(S(=O)(=O)NC2CCCCCC2)ccc1F,"inconclusive: 50.1 µM [inhibitor, partial curve, poor fit]",–
CC(=O)N1c2ccccc2C(CBr)=CC1(C)C,"inconclusive: 31.6 µM [inhibitor, partial curve, poor fit]",–
COc1ccc(Cl)cc1NC(=O)CN1C(=O)NC2(CCCCC2)C1=O,"inconclusive: 2.51 µM [inhibitor, full curve, poor fit]",–
COc1ccc(C(=O)Cn2nc(CNc3ccc(Br)cc3)[n+]3c2CCCCC3)cc1,inactive,–
Cc1ccc(O)c(NC(=O)CSc2n[nH]c(C)c2[N+](=O)[O-])c1,inactive,–
CNC(=S)N/N=C/c1cccc(OCc2ccccc2F)c1,"inconclusive: 50.1 µM [inhibitor, partial curve, poor fit]",–

# Sorted by molecular weight (high to low): some entries from above
SMILES,Potency,"activity change, negative = inhibition"
CCOc1ccccc1NC(=O)N1CCCC(Cc2ncc(C)n2C(C)C)C1 (configuration not stated),inactive,–
Cc1cc(C)c(S(=O)(=O)Nc2ccc3oc4c(c3c2)CCCC4)cc1C,"inconclusive: 56.2 µM [inhibitor, partial curve, poor fit]",–
C=CCSc1nnc(NC(=O)CSc2nc3ccccc3[nH]2)s1,inactive,–
O=C(c1cccnn1)N1C[C@H]2CN(C3CCOCC3)C[C@@]2(C(=O)O)C1,"inconclusive: 10 µM [inhibitor, full curve, poor fit]",–
